The results are deposited in PubChem (AID1159506; NCATS, 2015).

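Genome-wide siRNA knockdown in TC32 Ewing sarcoma cells, comparing luciferase light from an NR0B1-promoter reporter with a CMV-promoter reporter 48 hours after transfection.
Each siRNA was applied at 20 nM.
A z-score of the log NR0B1-over-CMV signal, less the median of siRNAs with the same seed; more negative means a stronger specific loss of the NR0B1 reporter.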

The strongest results of the screen are mostly left out here.
Sequences are the guide (antisense) strand, without overhang.

| # | siRNA | target gene | seed-corrected z-score |
|---|---|---|---|
| 1 | `UUACAAACUUCCCAAGUAG` | DIRC3 | -0.6978 |
| 2 | `UAUUGUAAAAUGAGCACUG` | HBP1 | -0.1789 |
| 3 | `UAAAUUGUUGCCGAAAUCG` | CAPNS2 | 0.01898 |
| 4 | `UGAGGUAAUCGUAGUCUUG` | CDH4 | -0.4419 |
| 5 | `UUCCGAUCCAGUCCAGUGU` | SOSTDC1 | 0.01963 |
| 6 | `UUGGUCGUGAGAGAAUUCC` | KIF3C | 0.5162 |
| 7 | `AGCGGUAUAGGGUUCGUGU` | NOBOX | 0.02178 |
| 8 | `AUAUAUCUGAGUCAAACUC` | STX17 | 0.3218 |
| 9 | `UACACUUGUACAAUGGGUG` | NDP | 0.4326 |
| 10 | `UUCCGAAACAACUUACGGC` | COL6A4P2 | -0.1406 |
| 11 | `UCCACUUCCUUAGUUACCC` | CFDP1 | 0.2081 |
| 12 | `UGAACUUCCGCUCCAACUC` | LRRC45 | 0.0293 |
| 13 | `UAGAGAUCUGUAGUGCUCC` | FBXO47 | -1.03 |
| 14 | `AAAAGGUAUCUCUUCAUCC` | ZNF772 | -0.8223 |
| 15 | `UUUAAUCCAACAUAAACCG` | TMEM126A | -0.07472 |
| 16 | `UACUUUCUUACGUUGGUCU` | LOC653155 | 0.06201 |
| 17 | `UCAAUCUUCACUGGAACCG` | SRP68 | 0.0857 |
| 18 | `UUUCGAUUGGGUGCAUAUC` | B3GALT2 | -0.1846 |
| 19 | `UCUGUCUCUAUCGCAGUGC` | C5orf64 | 1.169 |
| 20 | `UGGAUUAAAACUCCAAGCC` | TMEM56 | 0.7154 |
| 21 | `UGCGGAAGAAGUCAUCCCG` | FAM171A2 | -0.5136 |
| 22 | `ACCUUGUUGAUAAUACUGC` | AP5S1 | 0.4138 |
| 23 | `AGACGUAAAAGCAGUAGAU` | PIGQ | 0.6615 |
| 24 | `UCAACAUGUACGUUGCGGC` | MED14OS | -0.3116 |
| 25 | `UUAUCUCCUGGUAAGAUUG` | MOXD1 | 0.2963 |
| 26 | `UUGGUCAUAAUAAAGUGGG` | RXFP2 | -0.05102 |
| 27 | `UUUCCUCUUAGUGCUAUGG` | TRMO | -1.363 |
| 28 | `UUCUUCUCAGUACUUCACC` | PARGP1 | 0.2892 |
| 29 | `UCGGAUGUCAGCUGGGUGU` | CACNG5 | -0.6546 |
| 30 | `UAAAUGAUAUGGUCUGACU` | OR6F1 | 0.1142 |
| 31 | `UGUAGAGAAAGGCAUAUUG` | DNASE1L3 | -0.4862 |
| 32 | `UUAACAACUGGUUCUCGGG` | CLDN19 | 0.16 |
| 33 | `UUGGUAUAAAGGGAGACUG` | TEC | -0.6425 |
| 34 | `UUCUUUUUGCGGGACUUGC` | NEIL1 | -0.1963 |
| 35 | `UGGGUUCUUUCACUACUGC` | LOC729870 | 1.09 |
| 36 | `UAUUUGAUCAUGUAGACCG` | FZD2 | -0.6865 |
| 37 | `AACUAGUUCAAAAAUUGCC` | THAP9 | 0.002874 |
| 38 | `UAGUAUCUAACUCUUUUCA` | KRTAP1-1 | 0.4463 |
| 39 | `AUAAUUCCCAGUGCAACUG` | APOBEC4 | -1.941 |
| 40 | `UCAUGUUGCACUUCAUUAG` | RUBCN | -0.8638 |
| 41 | `UUUCUGGUGUUGGAUUUCC` | XCL2 | -0.7561 |
| 42 | `UACUGAUGUAGUGCAGUUU` | SCRG1 | 0.572 |
| 43 | `UUAUGAUCUAUCUCAGAAC` | DTHD1 | -0.3842 |
| 44 | `UUACUGAUGGUAAAAAUGU` | TRPM2 | -0.2181 |
| 45 | `UGAUGUCCGAGAUCAUGCG` | CCM2 | 1.047 |
| 46 | `UAAGAGUCCAUGAAAGUCU` | LOC401957 | -0.1658 |
| 47 | `UGCUUAACUGGAAGUGUGG` | TMEM33 | -0.393 |
| 48 | `UCUGAUAACAUUCCGUCUC` | IFIT3 | 0.1411 |
| 49 | `UUAAAGUCUGAGGUCUGGU` | DNAJC22 | 0.9957 |
| 50 | `UUCUUGUUAAGAUCUGGAU` | CD207 | 0.5747 |
| 51 | `UGUGUGUUCUCUGAAGCUG` | LOC645481 | -0.5241 |
| 52 | `UUCUCUCCAAUGCUAUGGG` | BNIP3 | 1.073 |
| 53 | `UAGUUGACCAGGACGAGGA` | SERPINA6 | 0.2197 |
| 54 | `UGCCCGAUCAUCAACUAGC` | HDHD2 | -0.8091 |
| 55 | `AGACAAUAAAUAAACCAUC` | IL27 | 0.7596 |
| 56 | `AAUAAUAUGUACUCCAUCC` | UTP11L | 1.088 |
| 57 | `UUCCUGAGAACAUCGGCCC` | TK1 | -0.7773 |
| 58 | `AUUCUACCAACAACCACGG` | ARMT1 | -0.2828 |
| 59 | `UCCAGUACUCAGCACAGUC` | LOC729867 | 1.461 |
| 60 | `AUAGGUACAAAGAUGUUCC` | NAA15 | -0.2914 |
| 61 | `UAGCAGACGAUUAAAGCAU` | USHBP1 | -0.4167 |
| 62 | `UUCGUAAUCUGCAUCCUCU` | CACNG2 | 0.02782 |
| 63 | `UCAAGUCAAACAUCCGUAG` | CALB2 | -0.7479 |
| 64 | `UUCCUAAGCAAUGUAGCUU` | MFSD6L | 0.07668 |
| 65 | `UGGGUUAUCAAGGCAGUAC` | PANK1 | -0.7395 |
| 66 | `UAGCAUAUGAGAACAGCUG` | ATP5G3 | 0.7286 |
| 67 | `UCAUUGAUAAAAGAGUGGA` | LGALS13 | -0.01276 |
| 68 | `AUACCUGUCAGUUAUAACC` | RINT1 | -0.2967 |
| 69 | `AAAGGGAUCAAUGUGGGUG` | FBRS | -1.278 |
| 70 | `UCCUCAAACUCUAUCUUGU` | SH3BGRL2 | -0.643 |
| 71 | `UGGGUUUUGGGUAGGCUCC` | LILRB2 | -0.5217 |
| 72 | `AAACUAUAAAUUACCAUGC` | NGF | -0.09208 |
| 73 | `UGUUGUAAUAGUAUCUGAG` | ETV3 | 0.2731 |
| 74 | `UUGAGGAUCUCCAGUAUCU` | APOL1 | 1.188 |
| 75 | `UCCGAGGUCCGUAUAAUGC` | MMP20 | 0.03 |
| 76 | `UGAACUUGUAUCAUCCUCC` | TMEM74 | 0.4237 |
| 77 | `UCAGUAUAUAAAGACAGGG` | CEPT1 | -0.1621 |
| 78 | `UAAUCUCUCUUGAAGGUAC` | CCDC149 | 1.215 |

Once more, the final 8:

- UGGGUUUUGGGUAGGCUCC against LILRB2 : seed-corrected z-score -0.5217
- AAACUAUAAAUUACCAUGC against NGF : seed-corrected z-score -0.09208
- UGUUGUAAUAGUAUCUGAG against ETV3 : seed-corrected z-score 0.2731
- UUGAGGAUCUCCAGUAUCU against APOL1 : seed-corrected z-score 1.188
- UCCGAGGUCCGUAUAAUGC against MMP20 : seed-corrected z-score 0.03
- UGAACUUGUAUCAUCCUCC against TMEM74 : seed-corrected z-score 0.4237
- UCAGUAUAUAAAGACAGGG against CEPT1 : seed-corrected z-score -0.1621
- UAAUCUCUCUUGAAGGUAC against CCDC149 : seed-corrected z-score 1.215